# In PMC7819943, “Rice protein-binding microarrays: a tool to detect cis-acting elements near promoter regions in rice”:
# By UniProt entry, the sequences of proteins in these tests, tags left out.
# UniProt Q0JBA9, entry or part of it: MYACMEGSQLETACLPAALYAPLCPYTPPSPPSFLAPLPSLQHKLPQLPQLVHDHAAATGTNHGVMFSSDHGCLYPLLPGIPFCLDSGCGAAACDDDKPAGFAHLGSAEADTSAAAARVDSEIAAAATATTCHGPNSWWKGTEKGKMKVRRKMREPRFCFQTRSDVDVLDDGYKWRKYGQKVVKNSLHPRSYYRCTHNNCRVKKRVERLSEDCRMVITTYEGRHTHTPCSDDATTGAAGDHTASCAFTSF
# This is one part of the list.
# Target: OsWRKY34 (Oryza sativa, UniProt Q0JBA9 1-250)
# Experiment: protein-binding microarray (RPBM); PBS, 2% BSA, 51.3 ng/ul salmon testes DNA, 50 uM zinc acetate, 200 nM TF, 25 C, 1 h; high values mean tight binding
# Conditions: protein: recombinant; tags: N-terminal polyhistidine and DsRed monomer fusion (pET32a); label: CyDye5-dUTP incorporated in the synthesized complementary strand; 3' TTTTT single-stranded linker to array surface; dsDNA, one strand shown
# Summary of the method: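 The binding signal is fluorescence intensity per feature, in arbitrary units, read on an Axon 4000B scanner. Polyhistidine- and DsRed-tagged transcription factors (N-terminal fusions) from E. coli BL21-CodonPlus were purified on Ni–NTA and applied at 200 nM for 1 h at 25 °C to a double-stranded, BSA-blocked custom Agilent array in buffer with 50 µM zinc acetate.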
row,Sequence,binding signal
1,TCTCTTTCGCGCCCTTTATATGCCGCTCTCCCGCGCGCCCCGGAGTCACCTAGTGCAG,12300 fluorescence intensity (a.u.)
2,ACGCTAGCACGTCATTACTGTTTCTCACCGATCACAAGGGCGGAGTCACCTAGTGCAG,8060 fluorescence intensity (a.u.)
3,GGTGCTTTGGTTGGGCCCATTTGGAACAGCGCATCTTTGACGGAGTCACCTAGTGCAG,8240 fluorescence intensity (a.u.)
4,TGTGGGTGTGCGTGTGTGCGTTCATAGGGGTGTGTGTGCGCGGAGTCACCTAGTGCAG,9150 fluorescence intensity (a.u.)
5,TAGGTTATGTTCTTTACTCTGTGTTCCCAACTTCACACCCCGGAGTCACCTAGTGCAG,8580 fluorescence intensity (a.u.)
6,CTGGTTGCAACCCCGCTTTGTTGATTCGTTCTTTGGCGGCCGGAGTCACCTAGTGCAG,10300 fluorescence intensity (a.u.)
7,ACTTTTTACCTATGGTGCATGTTTCTTTTTAACCCAACCACGGAGTCACCTAGTGCAG,10100 fluorescence intensity (a.u.)
8,TTATTTTTCATTTGTAAATACTACCGTTTCGCTTTTTCCTCGGAGTCACCTAGTGCAG,8270 fluorescence intensity (a.u.)
9,GATCTGGACTCTAGCCGATTCCTGCTCTGTTTCCGAACTCCGGAGTCACCTAGTGCAG,9920 fluorescence intensity (a.u.)
10,TGACGTCCACATGTCGCCACCACCGGCCAAACACCGCGCGCGGAGTCACCTAGTGCAG,10400 fluorescence intensity (a.u.)
11,CCTTCGCCGCCTCCGCATCCTTCTCCGGCGGCTGATCCAGCGGAGTCACCTAGTGCAG,8480 fluorescence intensity (a.u.)
12,TTTGTATTGTTCGACTTGTTTCTTATTAAAATTACAAGTTCGGAGTCACCTAGTGCAG,8140 fluorescence intensity (a.u.)
13,TCTCTCTCTCTCTCTTACTCGTTTTGGTGGGCCGGTCGGCCGGAGTCACCTAGTGCAG,8920 fluorescence intensity (a.u.)
14,CCAGCTTGGCATCGTTGACCGGGCCATCCCAACCCAATCCCGGAGTCACCTAGTGCAG,12900 fluorescence intensity (a.u.)
15,CCGGAGTCCTCTTGTTCTTCTTCTTCGTTGCTGCTGGTTTCGGAGTCACCTAGTGCAG,9860 fluorescence intensity (a.u.)
16,GATGTTTTGGCCATGCATTTCTTTTGGCCAAGGATGCGAACGGAGTCACCTAGTGCAG,8180 fluorescence intensity (a.u.)
17,ATCTATCACCATCTCTCCTTGATCTTGTGCACCTTACAAACGGAGTCACCTAGTGCAG,16800 fluorescence intensity (a.u.)
18,GCTTTCTGTCGACCCATCAATATGTACTATGTGTGTTTTACGGAGTCACCTAGTGCAG,13600 fluorescence intensity (a.u.)
19,GGGATGGGTAGGGAGAGAAGGAGGAAGAAGCACATAGATGCGGAGTCACCTAGTGCAG,8670 fluorescence intensity (a.u.)
20,AAAAGCAGTTTCTTCTCTCTTTTTTTCCTATTTTCCTTGACGGAGTCACCTAGTGCAG,8910 fluorescence intensity (a.u.)
21,CTCCTCTCCTCACCGTCACTCACCACCCGCCACACGTAACCGGAGTCACCTAGTGCAG,10100 fluorescence intensity (a.u.)

# Shown as tab-separated lines: part of the list above
row	Sequence	binding signal
4	TGTGGGTGTGCGTGTGTGCGTTCATAGGGGTGTGTGTGCGCGGAGTCACCTAGTGCAG	9150 fluorescence intensity (a.u.)
6	CTGGTTGCAACCCCGCTTTGTTGATTCGTTCTTTGGCGGCCGGAGTCACCTAGTGCAG	10300 fluorescence intensity (a.u.)
7	ACTTTTTACCTATGGTGCATGTTTCTTTTTAACCCAACCACGGAGTCACCTAGTGCAG	10100 fluorescence intensity (a.u.)
8	TTATTTTTCATTTGTAAATACTACCGTTTCGCTTTTTCCTCGGAGTCACCTAGTGCAG	8270 fluorescence intensity (a.u.)
9	GATCTGGACTCTAGCCGATTCCTGCTCTGTTTCCGAACTCCGGAGTCACCTAGTGCAG	9920 fluorescence intensity (a.u.)
14	CCAGCTTGGCATCGTTGACCGGGCCATCCCAACCCAATCCCGGAGTCACCTAGTGCAG	12900 fluorescence intensity (a.u.)
15	CCGGAGTCCTCTTGTTCTTCTTCTTCGTTGCTGCTGGTTTCGGAGTCACCTAGTGCAG	9860 fluorescence intensity (a.u.)
16	GATGTTTTGGCCATGCATTTCTTTTGGCCAAGGATGCGAACGGAGTCACCTAGTGCAG	8180 fluorescence intensity (a.u.)
17	ATCTATCACCATCTCTCCTTGATCTTGTGCACCTTACAAACGGAGTCACCTAGTGCAG	16800 fluorescence intensity (a.u.)
18	GCTTTCTGTCGACCCATCAATATGTACTATGTGTGTTTTACGGAGTCACCTAGTGCAG	13600 fluorescence intensity (a.u.)
20	AAAAGCAGTTTCTTCTCTCTTTTTTTCCTATTTTCCTTGACGGAGTCACCTAGTGCAG	8910 fluorescence intensity (a.u.)
21	CTCCTCTCCTCACCGTCACTCACCACCCGCCACACGTAACCGGAGTCACCTAGTGCAG	10100 fluorescence intensity (a.u.)

# The list continues.

row,Sequence,binding signal
1,CTTACACTCACTCGTGTGCACCCACCCGGGAAGAATTTCTCGGAGTCACCTAGTGCAG,11500 fluorescence intensity (a.u.)
2,CTCCCTTTTCTCGAGCGCCGGCGGCGCACGTGCTTTCTTCCGGAGTCACCTAGTGCAG,8240 fluorescence intensity (a.u.)
3,CCGCTGTCGCCGCACCATCATACTGTCGTCGCCATCCTCCCGGAGTCACCTAGTGCAG,8900 fluorescence intensity (a.u.)
4,TCCATTCAGGTAATCCTCAATTCCTTTTGCTTGCTGCCTTCGGAGTCACCTAGTGCAG,9270 fluorescence intensity (a.u.)
5,CCCGGCGGCCCGATCACCACCTGCCCGAACACCATCCTCCCGGAGTCACCTAGTGCAG,8530 fluorescence intensity (a.u.)
6,GCTGCCAACGTGGGTCCTATACTTCCTTCATCGCCGGAGGCGGAGTCACCTAGTGCAG,8150 fluorescence intensity (a.u.)
7,CTTATCAGCCCCTATCTATTTACATGTCAGCCCTTGCATTCGGAGTCACCTAGTGCAG,8160 fluorescence intensity (a.u.)
8,GCGCGGTTATCTCCTGCTTCAGGTTCCAGTCGAACATGTGCGGAGTCACCTAGTGCAG,8400 fluorescence intensity (a.u.)
9,TGTGGTGGCAAGTTTTAATATGGTCTTTTGAGGAGTTTCTCGGAGTCACCTAGTGCAG,9240 fluorescence intensity (a.u.)
10,GAACCCGCAGCCGCCTCCGCGCACCCCGCCGCCGTGGCCACGGAGTCACCTAGTGCAG,10600 fluorescence intensity (a.u.)
11,ATATATCACATCTTTCAACTTACAAAACCGTTCACTTTACCGGAGTCACCTAGTGCAG,8480 fluorescence intensity (a.u.)
12,AGTATATTAGGGTGTGTTTGGTTCCACGTCAAAATTAGAACGGAGTCACCTAGTGCAG,8760 fluorescence intensity (a.u.)
13,GTATCCCATTTTTTCTCCCATATTCCTCCCGCGAGCCTCGCGGAGTCACCTAGTGCAG,9130 fluorescence intensity (a.u.)
14,CCGGTTGCCGAGCTCTCCTTCTCTCTCGCCGGTCGCCGCGCGGAGTCACCTAGTGCAG,10900 fluorescence intensity (a.u.)
15,GTCCCATTTTCACTGTTTTTACTTACGTGCCAGGTGTCTGCGGAGTCACCTAGTGCAG,8620 fluorescence intensity (a.u.)
16,TGACATTTTGCTTGCACTGTTTGACCATTCATCTTATTCACGGAGTCACCTAGTGCAG,9820 fluorescence intensity (a.u.)
17,GTTCTCTATGCACGTTTTTTTTTCTTTTTTTCTGTTTTAACGGAGTCACCTAGTGCAG,10500 fluorescence intensity (a.u.)
18,TTCTGGTGGTGGGGAGATGGGTGCAAAAGGATGGGGAAGACGGAGTCACCTAGTGCAG,15100 fluorescence intensity (a.u.)
19,TAATTTTCACATACGGCTCTTTCGAGAAATCATCCATCAACGGAGTCACCTAGTGCAG,8600 fluorescence intensity (a.u.)
20,CCTCCTCCTCCATGGTGTGTCGCCGATCTGTGGGGTGGGACGGAGTCACCTAGTGCAG,8530 fluorescence intensity (a.u.)
21,TTTGACTTTCTAGCTGGCTAGGCTACGACTTCCCTTCATCCGGAGTCACCTAGTGCAG,9550 fluorescence intensity (a.u.)
